Experimental data: PubChem BioAssay AID248 (DTP/NCI, 2004)
The list shows only some results of the screen, not a fair sample: it gathers tests that were run many times, whatever their T/C, doses with no T/C, and many T/C values between a quarter and a half above the control. Further doses and runs are listed elsewhere. T/C is the treated group as % of the vehicle group. Some doses have a count of surviving animals in place of a T/C: the source holds a T/C of zero for them, seemingly a mark for toxic or unscored doses. Some survivor counts are full or nearly so, which does not show that the dose was tolerated: the source hardly ever lists a survival T/C far under the control, and the zero likely stands for such cases as well. Counts of survivors are from the toxicity check (mostly the fifth day) where no day follows; animals may have died later. Schedules are NCI's codes, read here as Q, the interval in days (D) or hours (H), X, the number of doses. For survival time, the PubChem record calls one and a half times the control and up active, and a quarter to a half above the control has no call in these data; cut-offs in other NCI protocols can differ. Some doses were run more than once; their values stand side by side, smallest first. Some T/C values carry the count of animals alive at the toxicity check (mostly the fifth day); without a count, all were alive then.

System: L1210 leukemia ip in BDF1 mice, survival T/C
Assay: NCI In Vivo Anticancer Drug Screen. Data for tumor model L1210 Leukemia (intraperitoneal) in B6D2F1 (BDF1) mice
Details: T/C endpoint: mean survival time, higher T/C = longer survival
[1] = dose: 100.0 mg/kg/injection, schedule: Q04DX002 (ip), vehicle: saline
[2] = dose: 200.0 mg/kg/injection, schedule: Q04DX002 (ip), vehicle: saline
[3] = dose: 400.0 mg/kg/injection, schedule: Q04DX002 (ip), vehicle: saline
[4] = dose: 300.0 mg/kg/injection, schedule: Q01DX001 (ip), vehicle: other
[5] = dose: 400.0 mg/kg/injection, schedule: Q01DX001 (ip), vehicle: saline

Nc1cc(I)c2cccnc2c1O
survivor count (dose: 40.0 mg/kg/injection, schedule: Q01DX015 (ip), vehicle: saline): 5 of 6
survivor count (dose: 80.0 mg/kg/injection, schedule: Q01DX015 (ip), vehicle: saline): 0 of 6

ClC1=CC2CCC1C21CC1 (stereo unspecified)
survivor count (dose: 400.0 mg/kg/injection, schedule: Q01DX005 (ip), vehicle: saline with Tween-80): 3 of 3

CC(=O)c1ccc[n+](Cc2ccc([N+](=O)[O-])cc2)c1
survivor count (dose: 200.0 mg/kg/injection, schedule: Q04DX003 (ip), vehicle: saline sonified): 0 of 6
survivor count (dose: 400.0 mg/kg/injection, schedule: Q04DX003 (ip), vehicle: saline sonified): 0 of 6

CCN(CC)CCN(CC)C(=O)C1C(c2ccccc2)C1c1ccccc1 (stereo unspecified)
survivor count (dose: 100.0 mg/kg/injection, schedule: Q04DX002 (ip), vehicle: Klucel (hydroxypropylcellulose) (HPC)): 1 of 3
survivor count [1]: 1 of 3
survivor count [2]: 0 of 3
survivor count [3]: 0 of 3

CCCCCCCCCCCC(=O)NC(=S)Nc1ccc(S(N)(=O)=O)cc1
survivor count (dose: 100.0 mg/kg/injection, schedule: Q04DX003 (ip), vehicle: Klucel (hydroxypropylcellulose) (HPC)): 6 of 6
survivor count (dose: 200.0 mg/kg/injection, schedule: Q04DX003 (ip), vehicle: Klucel (hydroxypropylcellulose) (HPC)): 6 of 6
survivor count (dose: 400.0 mg/kg/injection, schedule: Q04DX003 (ip), vehicle: Klucel (hydroxypropylcellulose) (HPC)): 6 of 6

CCC(C)NC(=S)Nc1ccccc1 (stereo unspecified)
survivor count (dose: 75.0 mg/kg/injection, schedule: Q01DX001 (ip), vehicle: other): 0 of 6
survivor count (dose: 150.0 mg/kg/injection, schedule: Q01DX001 (ip), vehicle: other): 0 of 6
survivor count [4]: 0 of 6

Cc1cccc(N)n1
survivor count (dose: 12.5 mg/kg/injection, schedule: Q04DX002 (ip), vehicle: saline): 3 of 3
survivor count [1]: 0 of 3
survivor count [2]: 1 of 3
survivor count [3]: 0 of 3

O=C1CCN/C(=N\[N+](=O)[O-])N1
survivor count (dose: 400.0 mg/kg/injection, schedule: Q01DX001 (ip), vehicle: saline with Tween-80): 3 of 6

O=C(NO)c1cccnc1
T/C (dose: 400.0 mg/kg/injection, schedule: Q01DX015 (ip), vehicle: water): 126 and 132 % of control
T/C (dose: 600.0 mg/kg/injection, schedule: Q01DX015 (ip), vehicle: water): 126 and 139 % of control

CN(C)CCCCNc1ccc(NCCCCN(C)C)c2c1C(=O)c1c(O)ccc(O)c1C2=O
survivor count [3]: 2 of 3

Cc1ccc(S(=O)(=O)/C=C(\I)c2ccc([N+](=O)[O-])cc2)cc1
survivor count [5]: 0 of 6

CCC(C)(CC)OC(N)=O
survivor count (dose: 400.0 mg/kg/injection, schedule: Q04DX003 (ip), vehicle: saline): 2 of 4

CCOC(=O)c1cnc(C)[nH]c1=O
survivor count (dose: 50.0 mg/kg/injection, schedule: Q01DX009 (ip), vehicle: saline): 6 of 6
survivor count (dose: 200.0 mg/kg/injection, schedule: Q01DX009 (ip), vehicle: saline): 6 of 6
survivor count [5]: 1 of 6

N#Cc1nn(C2OC(CO)C(O)C2O)c2ncnc(N)c12 (stereo unspecified)
T/C (dose: 100.0 mg/kg/injection, schedule: Q01DX009 (ip), vehicle: saline): 127 % of control [5 of 6 alive]

C=CCSC(=S)N(C)C
survivor count [1]: 0 of 3
survivor count [2]: 0 of 3
survivor count [3]: 0 of 3

CC(=O)OC(C)CC[P+](c1ccccc1)(c1ccccc1)c1ccccc1 (stereo unspecified)
survivor count [4]: 0 of 6

COc1cc(NS(C)(=O)=O)ccc1Nc1c2cccc(C)c2nc2c(C)cccc12
T/C (dose: 6.25 mg/kg/injection, schedule: Q01DX009 (ip), vehicle: water): 140 % of control
T/C (dose: 12.5 mg/kg/injection, schedule: Q01DX009 (ip), vehicle: saline): 126 % of control
T/C (dose: 25.0 mg/kg/injection, schedule: Q01DX001 (ip), vehicle: water): 144 % of control
T/C (dose: 50.0 mg/kg/injection, schedule: Q01DX009 (ip), vehicle: water): 125 % of control
T/C (dose: 200.0 mg/kg/injection, schedule: Q01DX001 (ip), vehicle: saline): 127 % of control
survivor count (dose: 200.0 mg/kg/injection, schedule: Q01DX009 (ip), vehicle: water): 10 of 10
T/C [5]: 140 % of control
survivor count (dose: 400.0 mg/kg/injection, schedule: Q01DX009 (ip), vehicle: water): 8 of 10
